{
  "sequences": {"note": "The chains behind the UniProt entries cited, without tags or fusion partners.", "UniProt Q61188, whole entry": "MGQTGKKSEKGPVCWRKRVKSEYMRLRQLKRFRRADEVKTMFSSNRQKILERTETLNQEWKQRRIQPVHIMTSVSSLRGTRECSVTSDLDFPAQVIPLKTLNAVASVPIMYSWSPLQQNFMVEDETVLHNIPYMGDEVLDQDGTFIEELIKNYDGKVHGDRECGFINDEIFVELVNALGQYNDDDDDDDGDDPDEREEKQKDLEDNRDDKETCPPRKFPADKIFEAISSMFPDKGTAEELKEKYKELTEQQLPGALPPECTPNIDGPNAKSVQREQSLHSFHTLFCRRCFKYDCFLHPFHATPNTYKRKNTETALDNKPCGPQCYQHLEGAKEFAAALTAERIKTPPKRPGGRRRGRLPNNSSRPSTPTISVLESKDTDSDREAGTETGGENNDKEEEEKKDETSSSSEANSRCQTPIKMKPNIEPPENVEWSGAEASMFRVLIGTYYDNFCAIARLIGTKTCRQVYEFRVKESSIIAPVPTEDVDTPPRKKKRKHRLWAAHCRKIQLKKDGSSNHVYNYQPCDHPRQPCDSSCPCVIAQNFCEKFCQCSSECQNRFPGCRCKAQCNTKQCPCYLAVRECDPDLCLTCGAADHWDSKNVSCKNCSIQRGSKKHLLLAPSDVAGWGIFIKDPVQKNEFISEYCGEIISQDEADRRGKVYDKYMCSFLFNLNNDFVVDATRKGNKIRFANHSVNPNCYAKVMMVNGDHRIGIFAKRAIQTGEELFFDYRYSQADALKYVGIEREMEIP"},
  "source": "ChEMBL document CHEMBL5674883",
  "about": "“The Heterochromatin Landscape in Migrating Cells and the Importance of H3K27me3 for Associated Transcriptome Alterations” (Cells, 2018)",
  "assay_type_in_all_cases": "cell-based",
  "key": {"[1]": {"molecular_target": "Histone-lysine N-methyltransferase EZH2 (Mus musculus) (UniProt Q61188)", "experiment": "Inhibition of EZH2 in mouse B16-F1 migrating cells assessed as fold change in H3K27me3-dependent regulated Cyp1a1-mRNA expression at 3 uM measured by ChIP-seq analysis relative to control cells"}, "[2]": {"molecular_target": "Histone-lysine N-methyltransferase EZH2 (Mus musculus) (UniProt Q61188)", "experiment": "Inhibition of EZH2 in mouse B16-F1 migrating cells assessed as fold change in H3K27me3-independent regulated Nog-mRNA expression at 3 uM measured by ChIP-seq analysis relative to control cells"}, "[3]": {"molecular_target": "Histone-lysine N-methyltransferase EZH2 (Mus musculus) (UniProt Q61188)", "experiment": "Inhibition of EZH2 in mouse B16-F1 migrating cells assessed as fold change in H3K27me3-buffered regulated Syngr4-mRNA expression at 3 uM measured by ChIP-seq analysis relative to control cells"}, "[4]": {"molecular_target": "Histone-lysine N-methyltransferase EZH2 (Mus musculus) (UniProt Q61188)", "experiment": "Inhibition of EZH2 in mouse B16-F1 migrating cells assessed as fold change in H3K27me3-buffered regulated Ldlr-mRNA expression at 3 uM measured by ChIP-seq analysis relative to control cells"}, "[5]": {"molecular_target": "Histone-lysine N-methyltransferase EZH2 (Mus musculus) (UniProt Q61188)", "experiment": "Inhibition of EZH2 in mouse B16-F1 migrating cells assessed as fold change in H3K27me3-buffered regulated Sh3pxd2b-mRNA expression at 3 uM measured by ChIP-seq analysis relative to control cells"}, "[6]": {"molecular_target": "Histone-lysine N-methyltransferase EZH2 (Mus musculus) (UniProt Q61188)", "experiment": "Inhibition of EZH2 in mouse B16-F1 migrating cells assessed as fold change in H3K27me3-buffered regulated Rarg-mRNA expression at 3 uM measured by ChIP-seq analysis relative to control cells"}, "[7]": {"molecular_target": "Histone-lysine N-methyltransferase EZH2 (Mus musculus) (UniProt Q61188)", "experiment": "Inhibition of EZH2 in mouse B16-F1 migrating cells assessed as fold change in H3K27me3-buffered regulated Fcho2-mRNA expression at 3 uM measured by ChIP-seq analysis relative to control cells"}, "[8]": {"molecular_target": "Histone-lysine N-methyltransferase EZH2 (Mus musculus) (UniProt Q61188)", "experiment": "Inhibition of EZH2 in mouse B16-F1 migrating cells assessed as fold change in H3K27me3-buffered regulated Esco1-mRNA expression at 3 uM measured by ChIP-seq analysis relative to control cells"}, "[9]": {"molecular_target": "Histone-lysine N-methyltransferase EZH2 (Mus musculus) (UniProt Q61188)", "experiment": "Inhibition of EZH2 in mouse B16-F1 migrating cells assessed as fold change in H3K27me3-buffered regulated Ankrd10-mRNA expression at 3 uM measured by ChIP-seq analysis relative to control cells"}, "[10]": {"molecular_target": "Histone-lysine N-methyltransferase EZH2 (Mus musculus) (UniProt Q61188)", "experiment": "Inhibition of EZH2 in mouse B16-F1 migrating cells assessed as fold change in H3K27me3-buffered regulated Cep85l-mRNA expression at 3 uM measured by ChIP-seq analysis relative to control cells"}, "[11]": {"molecular_target": "Histone-lysine N-methyltransferase EZH2 (Mus musculus) (UniProt Q61188)", "experiment": "Inhibition of EZH2 in mouse B16-F1 migrating cells assessed as fold change in H3K27me3-buffered regulated Slc2a4-mRNA expression at 3 uM measured by ChIP-seq analysis relative to control cells"}, "[12]": {"molecular_target": "Histone-lysine N-methyltransferase EZH2 (Mus musculus) (UniProt Q61188)", "experiment": "Inhibition of EZH2 in mouse B16-F1 migrating cells assessed as fold change in H3K27me3-buffered regulated 4933415A04Rik-mRNA expression at 3 uM measured by ChIP-seq analysis relative to control cells"}, "[13]": {"molecular_target": "T1, RNA polymerase II (Mus musculus) (UniProt P08775+Q8CFI7+P97760+A0A3Q4L2S8+Q80UW8+P61219+P62488+Q923G2+P60898+O08740+Q63871+P62876)", "experiment": "Inhibition of RNA polymerase II in mouse B16-F1 migrating cells assessed as fold change in Guca1a-RNA stability at 0.1 mM measured by ChIP-seq analysis relative to control cells"}, "[14]": {"molecular_target": "T1, RNA polymerase II (Mus musculus)", "experiment": "Inhibition of RNA polymerase II in mouse B16-F1 migrating cells assessed as fold change in Nckap5l-RNA stability at 0.1 mM measured by ChIP-seq analysis relative to control cells"}, "[15]": {"molecular_target": "T1, RNA polymerase II (Mus musculus)", "experiment": "Inhibition of RNA polymerase II in mouse B16-F1 migrating cells assessed as fold change in Mospd3-RNA stability at 0.1 mM measured by ChIP-seq analysis relative to control cells"}, "[16]": {"molecular_target": "T1, RNA polymerase II (Mus musculus)", "experiment": "Inhibition of RNA polymerase II in mouse B16-F1 migrating cells assessed as fold change in Gipc1-RNA stability at 0.1 mM measured by ChIP-seq analysis relative to control cells"}, "[17]": {"molecular_target": "T1, RNA polymerase II (Mus musculus)", "experiment": "Inhibition of RNA polymerase II in mouse B16-F1 migrating cells assessed as fold change in Tom1l1-RNA stability at 0.1 mM measured by ChIP-seq analysis relative to control cells"}, "[18]": {"molecular_target": "T1, RNA polymerase II (Mus musculus)", "experiment": "Inhibition of RNA polymerase II in mouse B16-F1 migrating cells assessed as fold change in Arih1-RNA stability at 0.1 mM measured by ChIP-seq analysis relative to control cells"}, "[19]": {"molecular_target": "T1, RNA polymerase II (Mus musculus)", "experiment": "Inhibition of RNA polymerase II in mouse B16-F1 migrating cells assessed as fold change in Mef2c-RNA stability at 0.1 mM measured by ChIP-seq analysis relative to control cells"}, "[20]": {"molecular_target": "T1, RNA polymerase II (Mus musculus)", "experiment": "Inhibition of RNA polymerase II in mouse B16-F1 migrating cells assessed as fold change in Acsl4-RNA stability at 0.1 mM measured by ChIP-seq analysis relative to control cells"}, "[21]": {"molecular_target": "T1, RNA polymerase II (Mus musculus)", "experiment": "Inhibition of RNA polymerase II in mouse B16-F1 migrating cells assessed as fold change in Picalm-RNA stability at 0.1 mM measured by ChIP-seq analysis relative to control cells"}, "[22]": {"molecular_target": "T1, RNA polymerase II (Mus musculus)", "experiment": "Inhibition of RNA polymerase II in mouse B16-F1 migrating cells assessed as fold change in Prkce-RNA stability at 0.1 mM measured by ChIP-seq analysis relative to control cells"}, "[23]": {"molecular_target": "T1, RNA polymerase II (Mus musculus)", "experiment": "Inhibition of RNA polymerase II in mouse B16-F1 migrating cells assessed as fold change in Hccs-RNA stability at 0.1 mM measured by ChIP-seq analysis relative to control cells"}, "[24]": {"molecular_target": "T1, RNA polymerase II (Mus musculus)", "experiment": "Inhibition of RNA polymerase II in mouse B16-F1 migrating cells assessed as fold change in Ranbp2-RNA stability at 0.1 mM measured by ChIP-seq analysis relative to control cells"}, "[25]": {"molecular_target": "T1, RNA polymerase II (Mus musculus)", "experiment": "Inhibition of RNA polymerase II in mouse B16-F1 migrating cells assessed as fold change in Bmi1-RNA stability at 0.1 mM measured by ChIP-seq analysis relative to control cells"}, "[26]": {"molecular_target": "T1, RNA polymerase II (Mus musculus)", "experiment": "Inhibition of RNA polymerase II in mouse B16-F1 migrating cells assessed as fold change in Syde2-RNA stability at 0.1 mM measured by ChIP-seq analysis relative to control cells"}, "[27]": {"molecular_target": "T1, RNA polymerase II (Mus musculus)", "experiment": "Inhibition of RNA polymerase II in mouse B16-F1 migrating cells assessed as fold change in Tmf1-RNA stability at 0.1 mM measured by ChIP-seq analysis relative to control cells"}, "[28]": {"molecular_target": "T1, RNA polymerase II (Mus musculus)", "experiment": "Inhibition of RNA polymerase II in mouse B16-F1 migrating cells assessed as fold change in Klhl42-RNA stability at 0.1 mM measured by ChIP-seq analysis relative to control cells"}, "[29]": {"molecular_target": "T1, RNA polymerase II (Mus musculus)", "experiment": "Inhibition of RNA polymerase II in mouse B16-F1 migrating cells assessed as fold change in Hyls1-RNA stability at 0.1 mM measured by ChIP-seq analysis relative to control cells"}, "[30]": {"molecular_target": "T1, RNA polymerase II (Mus musculus)", "experiment": "Inhibition of RNA polymerase II in mouse B16-F1 migrating cells assessed as fold change in Smc6-RNA stability at 0.1 mM measured by ChIP-seq analysis relative to control cells"}},
  "note": "This continues a long series; more values of the same kind are listed elsewhere.",
  "data": [
    {"compound": "CCCc1cc(C)[nH]c(=O)c1CNC(=O)c1cc(-c2ccnc(N3CCN(C)CC3)c2)cc2c1cnn2C(C)C", "values": [
      {"measurement": "log2FC", "setting": "[1]", "value": 0.46},
      {"measurement": "log2FC", "setting": "[2]", "value": 0.47},
      {"measurement": "log2FC", "setting": "[3]", "value": 0.79},
      {"measurement": "log2FC", "setting": "[4]", "value": 0.7},
      {"measurement": "log2FC", "setting": "[5]", "value": 0.4},
      {"measurement": "log2FC", "setting": "[6]", "value": -0.46},
      {"measurement": "log2FC", "setting": "[7]", "value": -0.48},
      {"measurement": "log2FC", "setting": "[8]", "value": -0.5},
      {"measurement": "log2FC", "setting": "[9]", "value": -0.57},
      {"measurement": "log2FC", "setting": "[10]", "value": -0.69},
      {"measurement": "log2FC", "setting": "[11]", "value": -0.83},
      {"measurement": "log2FC", "setting": "[12]", "value": -0.89}
    ]},
    {"compound": "OC[C@H]1O[C@@H](n2cnc3cc(Cl)c(Cl)cc32)[C@H](O)[C@@H]1O", "values": [
      {"measurement": "log2FC", "setting": "[13]", "value": 0.83},
      {"measurement": "log2FC", "setting": "[14]", "value": 0.68},
      {"measurement": "log2FC", "setting": "[15]", "value": 0.5},
      {"measurement": "log2FC", "setting": "[16]", "value": 0.43},
      {"measurement": "log2FC", "setting": "[17]", "value": -0.44},
      {"measurement": "log2FC", "setting": "[18]", "value": -0.44},
      {"measurement": "log2FC", "setting": "[19]", "value": -0.48},
      {"measurement": "log2FC", "setting": "[20]", "value": -0.51},
      {"measurement": "log2FC", "setting": "[21]", "value": -0.54},
      {"measurement": "log2FC", "setting": "[22]", "value": -0.56},
      {"measurement": "log2FC", "setting": "[23]", "value": -0.58},
      {"measurement": "log2FC", "setting": "[24]", "value": -0.6},
      {"measurement": "log2FC", "setting": "[25]", "value": -0.6},
      {"measurement": "log2FC", "setting": "[26]", "value": -0.67},
      {"measurement": "log2FC", "setting": "[27]", "value": -0.71},
      {"measurement": "log2FC", "setting": "[28]", "value": -0.72},
      {"measurement": "log2FC", "setting": "[29]", "value": -0.91},
      {"measurement": "log2FC", "setting": "[30]", "value": -0.97}
    ]}
  ]
}
